The target in the assay is EWSR1-SNAP (Ewing Sarcoma breakpoint region 1/EWS RNA binding protein 1, SNAP-tagged) (UniProt Q01844). As to the kind of experiment: dynamic light scattering (DLS); sub-saturated solutions of one protein; 100 mM KCl and 100 mM KGlu buffers (20 mM Tris pH 7.4), 25 °C; correlation coefficients, size distributions and derived count rates; detects mesoscale clusters; both purified.

Protein sequences, listed by entry. Tags and fused reporters are not part of them.
UniProt Q01844: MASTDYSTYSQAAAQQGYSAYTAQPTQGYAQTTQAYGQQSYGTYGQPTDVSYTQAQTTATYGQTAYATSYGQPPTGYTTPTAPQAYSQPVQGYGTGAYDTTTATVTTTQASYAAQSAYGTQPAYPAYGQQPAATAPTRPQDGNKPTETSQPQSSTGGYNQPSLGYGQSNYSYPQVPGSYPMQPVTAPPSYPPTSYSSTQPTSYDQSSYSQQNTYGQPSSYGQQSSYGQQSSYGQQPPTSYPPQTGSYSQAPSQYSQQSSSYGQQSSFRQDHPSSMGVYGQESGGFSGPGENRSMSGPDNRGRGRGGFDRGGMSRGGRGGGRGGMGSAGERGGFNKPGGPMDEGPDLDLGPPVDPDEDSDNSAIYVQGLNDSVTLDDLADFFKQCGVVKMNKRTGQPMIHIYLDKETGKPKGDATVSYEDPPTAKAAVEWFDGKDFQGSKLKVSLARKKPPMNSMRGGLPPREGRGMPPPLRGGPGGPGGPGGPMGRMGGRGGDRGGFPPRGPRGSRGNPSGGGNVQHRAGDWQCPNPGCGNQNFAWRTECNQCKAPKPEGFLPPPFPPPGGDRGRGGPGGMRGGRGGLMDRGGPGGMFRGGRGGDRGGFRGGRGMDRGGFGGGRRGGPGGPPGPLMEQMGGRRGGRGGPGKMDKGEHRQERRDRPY

These are yes or no findings as the source states them, for the method shown. Some results given as binding are weak or reduced against the parent protein; the word gives no strength.

Turning to “EWSR1-SNAP (Ewing Sarcoma breakpoint region 1/EWS RNA binding protein 1, SNAP-tagged) (from UniProt Q01844 1-656)”, the binding entry is “binds”.

Source of the values: paper PMC11116469.
